Measurements from article PMC3313078.
Results are given in words; binding and its absence hold for the method and conditions named. Binding seen in cells or lysates may run through a third protein. Binding can be weak; no strength is given. Where a sequence is shown, tags or fusion partners need not be part of it.

Molecular target: His-SscB (chaperone for SseF)
Assay: pull-down; SseF-M45 co-expressed with SscB, His-SscB pulled down (preparative enrichment of SseF-M45)

B1: SseF-M45 (full-length SseF with M45 tag) (protein, UniProt O84951 1-260)
chain: MKIHIPSAASNIVDGNSPPSDIQAKEVSFPPPEIPAPGTPAAPVLLTPEQIRQQRDYAIHFMQYTIRALGATVVFGLSVAAAVISGGAGLPIAILAGAALVIAIGDACCAYHNYQSICQQKEPLQTASDSVALVVSALALKCGASLNCANTLANCLSLLIRSGIAISMLVLPLQFPLPAAENIAASLDMGSVITSVSLTAIGAVLDYCLARPSGDDQENSVDELHADPSVLLAEQMAALCQSATTPALMDSSDHTSRGEP
binding: binds
